# The other results are listed elsewhere or left out.
# Chains of the proteins cited; added tags and fusions are not shown.
# UniProt Q0JBA9, entry or part of it: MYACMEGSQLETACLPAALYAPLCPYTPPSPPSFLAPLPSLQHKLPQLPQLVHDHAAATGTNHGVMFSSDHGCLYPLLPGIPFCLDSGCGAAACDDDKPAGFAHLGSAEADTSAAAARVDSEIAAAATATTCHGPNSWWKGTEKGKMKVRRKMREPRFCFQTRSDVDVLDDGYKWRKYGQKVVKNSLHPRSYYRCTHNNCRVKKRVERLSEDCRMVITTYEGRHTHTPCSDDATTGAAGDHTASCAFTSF
# Target: OsWRKY34 (Oryza sativa, UniProt Q0JBA9 1-250)
# Test: protein-binding microarray (RPBM); PBS, 2% BSA, 51.3 ng/ul salmon testes DNA, 50 uM zinc acetate, 200 nM TF, 25 C, 1 h; high values mean tight binding
# Conditions: protein: recombinant; tags: N-terminal polyhistidine and DsRed monomer fusion (pET32a); label: CyDye5-dUTP incorporated in the synthesized complementary strand; 3' TTTTT single-stranded linker to array surface; dsDNA, one strand shown
# Method in brief: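 Polyhistidine-tagged DsRed fusions of transcription factors, joined at the N-terminus, were expressed in E. coli BL21-CodonPlus and isolated on Ni–NTA. They were incubated at 200 nM for 1 h at 25 °C on a custom Agilent array, double-stranded and BSA-blocked, in PBS with 2% BSA, salmon testes DNA and 50 µM zinc acetate. The binding signal is per-feature fluorescence intensity (arbitrary units) read on an Axon 4000B scanner after washing.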
row,Sequence,binding signal
1,AGAGGGAGCGTGTGTGCCGTTCGGGTGTGTTCAATTCAGACGGAGTCACCTAGTGCAG,8460 fluorescence intensity (a.u.)
2,TCTTCCCTCTCAACTCCTCTCTCTCTCTCCTTCGTCGTCTCGGAGTCACCTAGTGCAG,8400 fluorescence intensity (a.u.)
3,TTTGACTGTGTCTTATGATGCTATCTTGATCGATCAGAACCGGAGTCACCTAGTGCAG,8440 fluorescence intensity (a.u.)
4,CCTGTTACCTGTTTGGCTGACTTGGTCAAACACAACTCACCGGAGTCACCTAGTGCAG,9460 fluorescence intensity (a.u.)
5,ACTTATCCTGCAACTGTACCTGCTCTGACACGACCATTCCCGGAGTCACCTAGTGCAG,12500 fluorescence intensity (a.u.)
6,AGAGGGGTGGCCTCACAAATGTGATGTGGTATGTTCCTATCGGAGTCACCTAGTGCAG,10200 fluorescence intensity (a.u.)
7,CCCGGCATCTTCCATCTTTTCTCTGTGGACTTTTTTACGTCGGAGTCACCTAGTGCAG,11200 fluorescence intensity (a.u.)
8,TGTGGGACAGGATGGTCACTAATTTCCGGTTTTGGTTTTACGGAGTCACCTAGTGCAG,8480 fluorescence intensity (a.u.)
9,AATGAGTAACTTTCTGCTTGTGTGTCACTCTACTCTTTGGCGGAGTCACCTAGTGCAG,8720 fluorescence intensity (a.u.)
10,AGGGGTTAAGATTGTCCCAACTTCAGTGGAGGATGAGAGACGGAGTCACCTAGTGCAG,8360 fluorescence intensity (a.u.)
11,TGTGTCTTGGGCTCCGTGCTGCAGCTGGCTACATATCTGTCGGAGTCACCTAGTGCAG,9920 fluorescence intensity (a.u.)
12,AATTACTAAACGATGTATTTTTTTAAAAAAAGTTTCTATACGGAGTCACCTAGTGCAG,8570 fluorescence intensity (a.u.)
13,TTTTTTTTTTGGCTGTAGGGTTTTGAAGTAATGAAGTGAACGGAGTCACCTAGTGCAG,8180 fluorescence intensity (a.u.)
14,TTTTGCAGTGTTGGATGTGTTGGTTTATAGCTTCGTCATACGGAGTCACCTAGTGCAG,12900 fluorescence intensity (a.u.)
15,AACTGTTCCTACTATATGCGCCGTGACAAGTGACTCAAATCGGAGTCACCTAGTGCAG,8710 fluorescence intensity (a.u.)
16,TCGCCGTCGTCCTCTTCTTCCCGACGCTTCATATAGTTGCCGGAGTCACCTAGTGCAG,8260 fluorescence intensity (a.u.)
17,TAAAAGTTCTGTCTTGGTCGGAGTGGGGATAGCATTTCTCCGGAGTCACCTAGTGCAG,9790 fluorescence intensity (a.u.)
18,TTTTTGTTTTGACACAGATTCCTTAGCTGTTTGTCATAGCCGGAGTCACCTAGTGCAG,8200 fluorescence intensity (a.u.)
19,GCTTGTGTTTCTACGATATCCTCGACAACATCTCCATCTACGGAGTCACCTAGTGCAG,9470 fluorescence intensity (a.u.)
20,AATTCTTCTTCACATGCTTCTTCGCGTCATGCATAAACACCGGAGTCACCTAGTGCAG,9820 fluorescence intensity (a.u.)
21,GCCTTTATAACCGGCGCCACCCCTTGCTGCTAAATCTTGACGGAGTCACCTAGTGCAG,13400 fluorescence intensity (a.u.)
22,CTTATCTGTTTTGTGCTGTGGTTCTGATCAAGGTACAGTTCGGAGTCACCTAGTGCAG,8530 fluorescence intensity (a.u.)
23,CTAATTTCCTCTGTTTCGCAACTACTATATGCTTTGAATACGGAGTCACCTAGTGCAG,8760 fluorescence intensity (a.u.)

# Part of the list above, tab-delimited:
row	Sequence	binding signal
1	AGAGGGAGCGTGTGTGCCGTTCGGGTGTGTTCAATTCAGACGGAGTCACCTAGTGCAG	8460 fluorescence intensity (a.u.)
8	TGTGGGACAGGATGGTCACTAATTTCCGGTTTTGGTTTTACGGAGTCACCTAGTGCAG	8480 fluorescence intensity (a.u.)
9	AATGAGTAACTTTCTGCTTGTGTGTCACTCTACTCTTTGGCGGAGTCACCTAGTGCAG	8720 fluorescence intensity (a.u.)
10	AGGGGTTAAGATTGTCCCAACTTCAGTGGAGGATGAGAGACGGAGTCACCTAGTGCAG	8360 fluorescence intensity (a.u.)
12	AATTACTAAACGATGTATTTTTTTAAAAAAAGTTTCTATACGGAGTCACCTAGTGCAG	8570 fluorescence intensity (a.u.)
20	AATTCTTCTTCACATGCTTCTTCGCGTCATGCATAAACACCGGAGTCACCTAGTGCAG	9820 fluorescence intensity (a.u.)
21	GCCTTTATAACCGGCGCCACCCCTTGCTGCTAAATCTTGACGGAGTCACCTAGTGCAG	13400 fluorescence intensity (a.u.)

# Reference: article PMC7819943, “Rice protein-binding microarrays: a tool to detect cis-acting elements near promoter regions in rice”
